Laboratory results published in publication PMC8377850.
Results are given in words; binding and its absence hold for the method and conditions named. In cells and extracts the contact can be indirect. Some results given as binding are weak or reduced against the parent protein; the word gives no strength. For part of these data: Tags and fused reporters may be left off the sequences shown.

Protein sequences, listed by entry. Tags and fused reporters are not part of them.
UniProt P51114: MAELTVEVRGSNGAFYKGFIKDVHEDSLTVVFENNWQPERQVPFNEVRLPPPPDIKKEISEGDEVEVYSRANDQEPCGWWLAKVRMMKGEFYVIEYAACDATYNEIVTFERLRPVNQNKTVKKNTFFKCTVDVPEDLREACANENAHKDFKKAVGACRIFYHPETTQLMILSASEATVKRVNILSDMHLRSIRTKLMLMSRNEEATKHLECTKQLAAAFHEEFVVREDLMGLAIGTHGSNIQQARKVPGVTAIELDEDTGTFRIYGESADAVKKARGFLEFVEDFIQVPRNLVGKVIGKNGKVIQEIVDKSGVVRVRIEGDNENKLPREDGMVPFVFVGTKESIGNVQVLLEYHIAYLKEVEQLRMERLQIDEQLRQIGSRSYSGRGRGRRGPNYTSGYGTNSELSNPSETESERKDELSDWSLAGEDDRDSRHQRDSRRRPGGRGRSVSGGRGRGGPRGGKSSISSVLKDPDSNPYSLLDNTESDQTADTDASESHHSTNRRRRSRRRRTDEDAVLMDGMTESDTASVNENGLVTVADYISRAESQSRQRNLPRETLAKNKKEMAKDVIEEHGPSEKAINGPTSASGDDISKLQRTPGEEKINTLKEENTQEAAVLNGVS

Experiments:
[1] = molecular target: T1, plakophilin 3 (PKP3), endogenous (human (endogenous in A549)) (UniProt Q9Y446); assay: co-IP; A549 cell extracts (RIPA lysis buffer) precleared with protein A-agarose; IP with anti-PKP3 antibody 1 h at 4 °C, protein A/G overnight; western blot for FXR1; rabbit IgG isotype as negative control
T1 sequence: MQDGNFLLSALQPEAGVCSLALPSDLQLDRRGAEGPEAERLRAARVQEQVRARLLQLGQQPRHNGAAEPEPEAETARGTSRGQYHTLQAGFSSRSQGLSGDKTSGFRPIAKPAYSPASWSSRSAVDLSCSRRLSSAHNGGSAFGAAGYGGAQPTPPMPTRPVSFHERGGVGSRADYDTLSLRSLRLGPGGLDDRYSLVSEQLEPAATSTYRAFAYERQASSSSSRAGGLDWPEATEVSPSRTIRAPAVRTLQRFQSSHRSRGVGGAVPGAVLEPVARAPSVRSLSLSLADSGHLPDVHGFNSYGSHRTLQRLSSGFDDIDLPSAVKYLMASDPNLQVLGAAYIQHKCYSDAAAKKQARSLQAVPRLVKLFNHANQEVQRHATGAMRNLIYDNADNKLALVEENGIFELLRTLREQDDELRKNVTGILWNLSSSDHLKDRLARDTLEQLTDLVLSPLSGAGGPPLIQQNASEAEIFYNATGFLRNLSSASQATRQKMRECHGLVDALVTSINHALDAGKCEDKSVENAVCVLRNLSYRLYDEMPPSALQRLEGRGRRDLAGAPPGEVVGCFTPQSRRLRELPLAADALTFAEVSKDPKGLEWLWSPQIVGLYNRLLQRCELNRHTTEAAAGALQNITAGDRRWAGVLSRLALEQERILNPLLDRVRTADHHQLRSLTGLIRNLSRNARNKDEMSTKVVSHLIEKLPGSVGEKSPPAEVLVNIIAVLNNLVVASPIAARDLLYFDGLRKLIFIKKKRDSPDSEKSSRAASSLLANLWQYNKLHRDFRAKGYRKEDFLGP

[2] = molecular target: T2, myc-tagged full-length PKP3 (human) (UniProt Q9Y446); assay: co-IP; extracts of cells transfected with myc-tagged full-length PKP3 or PKP3ΔC; IP with anti-myc antibody; western blot for coprecipitated endogenous FXR1
T2 sequence: T1 sequence

[3] = molecular target: T3, myc-tagged PKP3ΔC (aa 1–515), lacking repeat domains at its C-terminus (human) (UniProt Q9Y446); assay: as above
T3 sequence: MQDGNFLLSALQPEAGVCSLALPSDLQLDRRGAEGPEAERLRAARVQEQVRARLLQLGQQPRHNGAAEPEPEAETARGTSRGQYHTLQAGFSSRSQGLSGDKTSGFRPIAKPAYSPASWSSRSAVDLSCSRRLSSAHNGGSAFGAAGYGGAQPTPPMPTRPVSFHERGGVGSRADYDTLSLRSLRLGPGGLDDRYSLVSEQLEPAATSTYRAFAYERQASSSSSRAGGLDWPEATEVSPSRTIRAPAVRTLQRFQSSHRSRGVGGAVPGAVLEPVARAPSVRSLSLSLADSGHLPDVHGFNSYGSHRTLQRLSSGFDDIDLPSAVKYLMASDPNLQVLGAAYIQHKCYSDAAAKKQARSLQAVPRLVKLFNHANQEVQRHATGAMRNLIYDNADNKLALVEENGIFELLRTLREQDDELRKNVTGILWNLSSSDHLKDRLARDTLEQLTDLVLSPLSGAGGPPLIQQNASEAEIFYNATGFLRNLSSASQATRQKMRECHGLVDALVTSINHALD

Measured: binding

fragile X mental retardation syndrome-related protein 1 (FXR1), endogenous (from UniProt P51114 1-621)
binds: all assays above
